These results are taken from publication PMC12125883.

Chains of the proteins cited; added tags and fusions are not shown.
UniProt Q13950: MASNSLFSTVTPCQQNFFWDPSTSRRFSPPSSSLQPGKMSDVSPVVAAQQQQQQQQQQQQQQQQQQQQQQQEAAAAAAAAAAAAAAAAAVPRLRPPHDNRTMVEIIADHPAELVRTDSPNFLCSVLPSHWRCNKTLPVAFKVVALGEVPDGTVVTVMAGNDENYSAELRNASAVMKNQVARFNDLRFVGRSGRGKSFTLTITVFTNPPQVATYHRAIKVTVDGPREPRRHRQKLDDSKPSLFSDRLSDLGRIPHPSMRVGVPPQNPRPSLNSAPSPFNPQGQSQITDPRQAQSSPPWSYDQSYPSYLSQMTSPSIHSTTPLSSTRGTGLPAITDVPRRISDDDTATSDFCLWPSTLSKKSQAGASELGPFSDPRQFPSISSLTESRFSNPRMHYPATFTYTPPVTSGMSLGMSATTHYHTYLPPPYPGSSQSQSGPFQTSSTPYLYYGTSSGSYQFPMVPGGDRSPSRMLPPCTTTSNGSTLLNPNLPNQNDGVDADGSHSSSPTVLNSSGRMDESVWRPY
UniProt Q93009: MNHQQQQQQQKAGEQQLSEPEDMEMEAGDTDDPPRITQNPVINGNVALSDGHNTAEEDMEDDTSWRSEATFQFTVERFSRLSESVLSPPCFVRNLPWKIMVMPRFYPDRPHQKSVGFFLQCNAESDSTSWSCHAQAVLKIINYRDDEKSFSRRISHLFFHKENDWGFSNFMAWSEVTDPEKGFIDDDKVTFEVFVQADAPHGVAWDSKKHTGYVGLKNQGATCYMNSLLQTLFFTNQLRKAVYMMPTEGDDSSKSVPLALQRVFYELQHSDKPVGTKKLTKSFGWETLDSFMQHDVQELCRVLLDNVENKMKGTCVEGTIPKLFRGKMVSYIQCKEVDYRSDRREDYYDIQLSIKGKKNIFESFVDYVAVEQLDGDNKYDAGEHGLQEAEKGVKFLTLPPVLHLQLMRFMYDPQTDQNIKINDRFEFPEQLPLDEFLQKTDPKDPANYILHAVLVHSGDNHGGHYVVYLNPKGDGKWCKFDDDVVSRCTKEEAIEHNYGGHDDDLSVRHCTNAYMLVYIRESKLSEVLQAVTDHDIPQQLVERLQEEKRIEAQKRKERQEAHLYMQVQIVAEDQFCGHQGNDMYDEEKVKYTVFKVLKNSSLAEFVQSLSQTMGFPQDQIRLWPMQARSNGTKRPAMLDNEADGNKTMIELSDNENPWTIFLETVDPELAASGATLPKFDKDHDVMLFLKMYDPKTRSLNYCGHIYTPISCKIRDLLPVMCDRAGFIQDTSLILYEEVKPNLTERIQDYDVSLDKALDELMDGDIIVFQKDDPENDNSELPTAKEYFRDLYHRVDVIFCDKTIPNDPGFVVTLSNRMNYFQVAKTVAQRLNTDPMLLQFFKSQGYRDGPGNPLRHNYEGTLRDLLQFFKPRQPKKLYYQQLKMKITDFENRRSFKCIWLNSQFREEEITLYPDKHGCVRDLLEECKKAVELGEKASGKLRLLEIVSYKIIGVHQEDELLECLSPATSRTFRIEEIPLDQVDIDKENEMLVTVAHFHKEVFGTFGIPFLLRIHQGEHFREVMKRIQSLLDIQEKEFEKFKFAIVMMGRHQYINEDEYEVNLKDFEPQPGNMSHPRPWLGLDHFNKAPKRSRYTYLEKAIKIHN

These are yes or no findings as the source states them, for the method shown. In cells and extracts the contact can be indirect. Some binding calls cover weakened binding; strength is not graded here.

The assay addresses Flag-RUNX2 (Runt-related transcription factor 2) (UniProt Q13950). The assay is described as follows: co-IP; Flag-RUNX2 and HA-USP7 co-transfected into HEK293T cells, lysed after 48 h; immunoprecipitation with Flag or HA antibody, immunoblot.

For “HA-USP7 (ubiquitin-specific protease 7) (from UniProt Q93009 1-1102) (enzyme)”, the binding result is on record as “binds”.
